Reference: publication PMC6597238, “The GluTR-binding protein is the heme-binding factor for feedback control of glutamyl-tRNA reductase” (eLife, 2019)
No constants are given. Whether binding was seen depends on the method and setting. Some binding calls cover weakened binding; strength is not graded here. Where a sequence is shown, tags or fusion partners need not be part of it.

Tests used:
[1] = target: T1, GST-GBP (GluTR-binding protein) (Arabidopsis) (UniProt Q9LU39); experiment: pull-down; as a1 but in the presence of 500 µM hemin (GST-GBP pre-incubated with hemin 30 min before HIS-GluTR1 was added); both purified
T1 sequence: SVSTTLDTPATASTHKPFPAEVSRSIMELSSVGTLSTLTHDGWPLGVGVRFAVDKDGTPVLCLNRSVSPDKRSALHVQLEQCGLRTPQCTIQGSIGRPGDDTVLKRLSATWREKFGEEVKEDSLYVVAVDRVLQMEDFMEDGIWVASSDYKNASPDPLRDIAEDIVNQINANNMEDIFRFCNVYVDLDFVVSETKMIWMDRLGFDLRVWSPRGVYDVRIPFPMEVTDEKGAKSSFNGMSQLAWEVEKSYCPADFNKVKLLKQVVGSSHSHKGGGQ

[2] = target: T1, GST-GBP (GluTR-binding protein) (Arabidopsis); experiment: pull-down; 10 µg GST-GBP on GSH-Sepharose, 10 µg HIS-GluTR1 added, 30 min RT, PBSplus (PBS, 10% glycerol, 0.2% Tween 20), washes with 500 mM NaCl; no hemin; 6xHIS-GluTR1 detected with a HIS-tag antibody; both purified

B1: 6xHIS-GluTR1 (glutamyl-tRNA reductase 1) (enzyme, UniProt P42804 62-543)
chain: ELSASSDSASNAASISALEQLKNSAADRYTKERSSIVVIGLSIHTAPVEMREKLAIPEAEWPRAIAELCGLNHIEEAAVLSTCNRMEIYVLALSQHRGVKEVTEWMSKTSGIPVSEICQHRFLLYNKDATQHIFEVSAGLDSLVLGEGQILAQVKQVVKVGQGVNGFGRNISGLFKHAITVGKRVRTETNIASGAVSVSSAAVELALMKLPQSSNVSARMCVIGAGKMGKLVIKHLMAKGCTKVVVVNRSEERVSAIREEMPGIEIIYRPLDEMLACASEADVVFTSTASETPLFLKEHVENLPQASPEVGGLRHFVDISVPRNVGSCVGEVETARVYNVDDLKEVVAANKEDRMRKAMEAQTIITEESTQFEAWRDSLETVPTIKKLRAYAERIRVAELEKCMSKMGDDINKKTTRAVDDLSRGIVNRFLHGPMQHLRCDGSDSRTLSETLENMHALNRMYGLEKDILEEKLKAMAEQQQK
B1 was tested, and the binding [1] was “no binding (condition: with 500 µM hemin)” and the binding [2] was “binds”.
